In article PMC13453871:
Results are given in words; binding and its absence hold for the method and conditions named. In cells and extracts the contact can be indirect. Some binding calls cover weakened binding; strength is not graded here.

Experiments:
[1] = biological target: T1, annexin A1 (UniProt P04083); assay: co-IP; IP (Fig. S2H); bait, cells and conditions not told in the main text
T1 sequence: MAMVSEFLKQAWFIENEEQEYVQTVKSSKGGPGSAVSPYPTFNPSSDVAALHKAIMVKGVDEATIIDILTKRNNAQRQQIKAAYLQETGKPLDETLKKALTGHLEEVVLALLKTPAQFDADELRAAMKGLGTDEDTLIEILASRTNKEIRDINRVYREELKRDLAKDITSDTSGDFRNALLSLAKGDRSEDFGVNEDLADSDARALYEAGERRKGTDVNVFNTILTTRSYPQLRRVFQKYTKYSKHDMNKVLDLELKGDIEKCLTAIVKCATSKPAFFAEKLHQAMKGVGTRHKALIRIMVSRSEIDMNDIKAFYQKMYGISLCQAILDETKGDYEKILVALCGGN

[2] = biological target: T1, annexin A1; assay: co-IP; reciprocal Co-IP of ANXA1 and UCP1; cells and conditions not told in the main text

B1: thioredoxin (protein, UniProt P10599 1-105)
chain: MVKQIESKTAFQEALDAAGDKLVVVDFSATWCGPCKMIKPFFHSLSEKYSNVIFLEVDVDDCQDVASECEVKCMPTFQFFKKGQKVGEFSGANKEKLEATINELV
- binding [1]: binds

B2: uncoupling protein 1 (protein, UniProt P25874 1-307)
chain: MGGLTASDVHPTLGVQLFSAGIAACLADVITFPLDTAKVRLQVQGECPTSSVIRYKGVLGTITAVVKTEGRMKLYSGLPAGLQRQISSASLRIGLYDTVQEFLTAGKETAPSLGSKILAGLTTGGVAVFIGQPTEVVKVRLQAQSHLHGIKPRYTGTYNAYRIIATTEGLTGLWKGTTPNLMRSVIINCTELVTYDLMKEAFVKNNILADDVPCHLVSALIAGFCATAMSSPVDVVKTRFINSPPGQYKSVPNCAMKVFTNEGPTAFFKGLVPSFLRLGSWNVIMFVCFEQLKRELSKSRQTMDCAT
- binding [2]: no binding
